According to PMC10163288:
The list shows a part of the results.

B1: il2ra_site1_3nfp_sap_8_mot_HHH_b1_06287_af2_000000026_0001_41_57_H_._HHH_b2_05531_0001_0000600039_0000001_0_0001 (protein)
chain: SSSSDVRREAQELAREISELVKQGDREEARELLEELEELAEEFGSPLLERLVRQFKESIDSSSSS
B2: il2ra_site2_2erj_sap_20_mot_197fb4328e114ea57185fc38a0d327c6_0001_af2_000000091_0001_18_33_H_._8637e1c0d1640c2ded9eeeee1e5fead8_0001_0001_0000900007_0000001_0_0 … (protein)
chain: SSSSDDEEEDALRVIEEMIERAEEEGDEELLEFLARFLERTVEDVNNPELEELLKRLRELLSSSS
B3: il2ra_site2_2erj_sap_15_mot_HHH_b1_08207_af2_000000250_0001_43_57_H_._HHH_b2_05116_0001_0000200024_0000001_0_0001 (protein)
chain: SSSDKEEAEELYEQAKELLERGNPEEALRVLRRAATLAFESGDEELFSRLAELAHEIARAGSSSS
B4: il2ra_site1_3nfp_normal_mot_HHH_b1_05523_000000054_0001_1_19_H_._HHH_b1_02077_af2_0001_0000300017_0000001_0_af2pred_0001_af2pred_1_swapped (protein)
chain: SSSSSLRERIKELIEEAARLARNGDPEEARKVLEEALELAEELGSKSAERFVRQALKILYSSSSS
B5: il2ra_site2_3nfp_sap_22_mot_HHH_b1_07992_000000217_0001_38_52_H_._HHH_b1_07677_af2_0001_0000300023_0000001_0_0001 (protein)
chain: SSSSSDREWERAVKAALRFAKQVDDEELRRSALEWARAVALMGNDPELEELVEEVARELESSSSS
B6: il2ra_site2_2erj_normal_mot_HHH_b2_06726_000000006_0001_1_16_H_._HHH_b1_02584_0001_0000800018_0000001_0_af2pred_0001_1_af2pred_swapped (protein)
chain: SSSSSSDLEEEAEELIERAKRIEDPEEALIILLDAAAALAHANNEELEREVSKLVHELQSSSSSS
B7: il2ra_site1_1z92_normal_mot_HHH_b1_00499_000000281_0001_1_17_H_._HHH_b2_06820_af2_0001_0000100005_0000001_0 (protein)
chain: SSSSDEREELVARAIVKAVVQVAGLSEEDQEELEKIAEELLKEGVDELEVIKIIDELALKLSSSS
B8: il2ra_site1_3nfp_sap_11_mot_HHH_b1_01159_af2_000000075_0001_1_20_H_._HHH_b1_01434_af2_0001_0000400043_0000001_0_0001_af2pred_0001_af2pred (protein)
chain: SSSSTREFQELVKEVLRALKEGNPEEAKKLIEELEEIAERRNDPAAKFLVEHLEEKLRRLNSSSS
B9: il2ra_site1_1z92_sap_16_mot_HHH_b1_01250_000000104_0001_1_17_H_._HHH_b1_03515_af2_0001_0000100003_0000001_0_0001_af2pred_0001_af2pred_swapped (protein)
chain: SEIEEELREAVEKNDEELLREFIEIALRAAGDPRLVKQLLKILVKRLGLPPEVLERLEELLEELT
B10: il2ra_site2_3nfp_sap_15_mot_HHH_b2_04369_af2_000000237_0001_1_17_H_._99435e095d70fd56fcad6a1c72fb48ac_0001_1_0001_0000100001_0000001_1_0001 (protein)
chain: SSSSDEEEELQKLLERIKELIERGNPEEAEEVSAEAARLAFELNDEESFAILAELLLEIASSSSS

biological target: il2ra, P01589; experiment: yeast display titration

Apparent Kd, inactive:
B1 no binding seen
B2 no binding seen
B3 no binding seen
B4 no binding seen
B5 no binding seen
B6 no binding seen
B7 no binding seen
B8 no binding seen
B9 no binding seen
B10 no binding seen
